This assay has as its system L1210 leukemia ip in BDF1 mice, survival T/C. As to the kind of experiment: NCI In Vivo Anticancer Drug Screen. Data for tumor model L1210 Leukemia (intraperitoneal) in B6D2F1 (BDF1) mice. The settings on record: T/C endpoint: mean survival time, higher T/C = longer survival.
[1] abbreviates: dose: 100.0 mg/kg/injection, schedule: Q01DX001 (ip), vehicle: saline.
[2] abbreviates: dose: 400.0 mg/kg/injection, schedule: Q01DX001 (ip), vehicle: saline.
The mark [3] stands for this setting: dose: 200.0 mg/kg/injection, schedule: Q01DX001 (ip), vehicle: saline.
The mark [4] stands for this setting: dose: 400.0 mg/kg/injection, schedule: Q01DX009 (ip), vehicle: Klucel (hydroxypropylcellulose) (HPC).
[5] abbreviates: dose: 198.0 mg/kg/injection, schedule: Q01DX001 (ip), vehicle: saline.
The mark [6] stands for this setting: dose: 300.0 mg/kg/injection, schedule: Q01DX001 (ip), vehicle: saline.
[7] abbreviates: dose: 100.0 mg/kg/injection, schedule: Q04DX003 (ip), vehicle: saline with Tween-80.
The mark [8] stands for this setting: dose: 200.0 mg/kg/injection, schedule: Q04DX003 (ip), vehicle: saline with Tween-80.
[9] abbreviates: dose: 400.0 mg/kg/injection, schedule: Q04DX003 (ip), vehicle: saline with Tween-80.

Experimental findings from PubChem BioAssay AID248 (DTP/NCI, 2004) are described below.

The list does not hold the whole screen: it is rich in T/C values a quarter to a half above the control, in often repeated tests (any T/C) and in doses without a T/C. Other doses and runs of a compound stand elsewhere. T/C: endpoint of the treated group in % of that of the vehicle group. Some entries give survivors of the animals treated and no T/C: the source files T/C as zero there, which appears to mark a toxic dose or a test without result, not a measured value. Some doses without a T/C left all or most animals alive at the check, yet need not have been tolerated: the source hardly ever lists a survival T/C far under the control, and the zero likely stands for such cases as well. Survivors were counted at the toxicity check, usually on the fifth day, unless a day is given; later deaths do not show. Schedule codes are those of the source, read here as Q, the interval in days (D) or hours (H), X, the number of doses. Some doses were run more than once; the results are listed from low to high. Some schedules carry Z or #; the key to these is not given. Where survival is the endpoint, this PubChem deposit counts one and a half times the control or more as active, and values a quarter to a half above the control carry no call in these data; other NCI protocols may use other cut-offs. Some T/C values are followed by the survivors on the day toxicity was checked, most often the fifth; without a count, all were alive then.

On to `CC1(C)CC(=O)C2=C(C1)Nc1ccccc1NC2c1ccccc1` (configuration not stated), for which the T/C (dose: 200.0 mg/kg/injection, schedule: Q04DX002 (ip), vehicle: Klucel (hydroxypropylcellulose) (HPC)) was 127 % of control. Also, the survivor count (dose: 400.0 mg/kg/injection, schedule: Q04DX002 (ip), vehicle: Klucel (hydroxypropylcellulose) (HPC)) is 3 of 3.
In the case of `Cc1ccc(C(=O)CCCN2CCOCC2)c(C)c1`, the survivor count by setting is: under setting [1], 2 of 4; under setting [2], 1 of 4.
For `Cn1c(=O)c2c(nc(C3CC4C5CCC(C5)C4C3)n2C)n(C)c1=O` (configuration not stated), the survivor count (dose: 50.0 mg/kg/injection, schedule: Q01DX001 (ip), vehicle: carboxymethylcellulose (CMC)) is recorded as 4 of 4.
In the case of `O=C(O)CCl`, the survivor count reads like this: under setting [3], 0 of 4; under setting [2], 0 of 4.
For the compound `NC(=O)n1cccn1`, the survivor count (dose: 800.0 mg/kg/injection, schedule: Q01DX Z (ip), vehicle: carboxymethylcellulose (CMC)) is reported as 2 of 6.
Regarding `O=C(NCCN1CCCC1)NC1CCCCC1`, under setting [4], the survivor count is 0 of 6.
Consider `Cn1c(CCCC(=O)O)nc2cc(N(CCCl)CCCl)ccc21`, for which the T/C (dose: 10.0 mg/kg/injection, schedule: Q01DX009 (ip), vehicle: Klucel (hydroxypropylcellulose) (HPC)) was 125 and 137 % of control; the T/C (dose: 15.0 mg/kg/injection, schedule: Q01DX009 (ip), vehicle: Klucel (hydroxypropylcellulose) (HPC)) is 125 % of control; the T/C (dose: 20.0 mg/kg/injection, schedule: Q01DX009 (ip), vehicle: other) is 134 % of control; the T/C (dose: 20.0 mg/kg/injection, schedule: Q04DX003 (ip), vehicle: other) was 128 % of control; the T/C (dose: 40.0 mg/kg/injection, schedule: Q01DX001 (ip), vehicle: other) was 135 % of control; the T/C (dose: 40.0 mg/kg/injection, schedule: Q04DX003 (ip), vehicle: Klucel (hydroxypropylcellulose) (HPC)) was 127 % of control. In addition, the T/C is, setting by setting: (dose: 40.0 mg/kg/injection, schedule: Q04DX003 (ip), vehicle: other) 143 % of control; (dose: 50.0 mg/kg/injection, schedule: Q01DX001 (ip), vehicle: saline) 134 % of control. The survivor count runs as follows: (dose: 40.0 mg/kg/injection, schedule: Q01DX009 (ip), vehicle: acetone) 5 of 6; (dose: 50.0 mg/kg/injection, schedule: Q01DX009 (ip), vehicle: Klucel (hydroxypropylcellulose) (HPC)) 0 of 6; (dose: 60.0 mg/kg/injection, schedule: Q04DX003 (ip), vehicle: saline) 5 of 6; (dose: 75.0 mg/kg/injection, schedule: Q01DX009 (ip), vehicle: Klucel (hydroxypropylcellulose) (HPC)) 0 of 6; (dose: 80.0 mg/kg/injection, schedule: Q01DX009 (ip), vehicle: other) 5 of 6; (dose: 100.0 mg/kg/injection, schedule: Q01DX001 (ip), vehicle: carboxymethylcellulose (CMC)) 2 of 6. Besides, the survivor count was 6 of 6 under setting [1]; 0 of 6 (dose: 160.0 mg/kg/injection, schedule: Q01DX009 (ip), vehicle: other); 1 of 6 and 3 of 6 (dose: 160.0 mg/kg/injection, schedule: Q04DX003 (ip), vehicle: other); 0 of 6 (dose: 200.0 mg/kg/injection, schedule: Q01DX001 (ip), vehicle: carboxymethylcellulose (CMC)); 5 of 6 under setting [3]; 0 of 6 (dose: 320.0 mg/kg/injection, schedule: Q04DX003 (ip), vehicle: other). Besides, the survivor count (dose: 400.0 mg/kg/injection, schedule: Q01DX001 (ip), vehicle: carboxymethylcellulose (CMC)) is 0 of 6 and the survivor count under setting [2] is recorded as 0 of 6.
`Cc1ccc2c(ccc(/C=C/c3ccnc4c(O)cccc34)[n+]2C)c1`: the survivor count by setting is: (dose: 132.0 mg/kg/injection, schedule: Q01DX001 (ip), vehicle: saline) 3 of 6; under setting [5], 0 of 6; under setting [6], 0 of 6; (dose: 450.0 mg/kg/injection, schedule: Q01DX001 (ip), vehicle: saline) 0 of 6 and 1 of 6. For the same compound, the T/C reads like this: under setting [5], 126 % of control; under setting [6], 131 % of control [4 of 6 alive].
For the compound `CSc1nccc(NN=C2CCCCC2)n1`, the survivor count under setting [4] was 5 of 6.
Take `NNc1ncccn1`: the survivor count (dose: 40.0 mg/kg/injection, schedule: Q01DX001 (ip), vehicle: saline) is given as 0 of 6 and the survivor count (dose: 80.0 mg/kg/injection, schedule: Q01DX001 (ip), vehicle: saline) is listed as 0 of 6.
As for `Nc1cc(C(=O)Nc2ccc(C3=NCCCN3)cc2)ccc1C(=O)Nc1ccc(C2=NCCCN2)cc1`, the survivor count is, setting by setting: (dose: 30.0 mg/kg/injection, schedule: Q01DX Z (ip), vehicle: saline) 0 of 6; (dose: 60.0 mg/kg/injection, schedule: Q01DX Z (ip), vehicle: saline) 0 of 6; (dose: 120.0 mg/kg/injection, schedule: Q01DX Z (ip), vehicle: saline) 0 of 6.
In the case of `C[N+](C)(C)CSSC[N+](C)(C)C`, the survivor count reads like this: under setting [7], 4 of 6; under setting [8], 0 of 6; under setting [9], 0 of 6.
Turning to `O=C(CC(=Nc1ccccc1)c1ccccc1)c1ccccc1.O=C(CC(=Nc1ccccc1)c1ccccc1)c1ccccc1.[Cu]`, the survivor count (dose: 25.0 mg/kg/injection, schedule: Q04DX003 (ip), vehicle: saline with Tween-80) is listed as 6 of 6; the survivor count under setting [7] was 6 of 6; the survivor count under setting [8] is recorded as 0 of 6; the survivor count under setting [9] was 0 of 6.
In the case of `C=CC[Se]c1ncnc2c1ncn2C1OC(CO)C(O)C1O` (configuration not stated), the survivor count (dose: 100.0 mg/kg/injection, schedule: Q01DX005 (ip), vehicle: saline) was 1 of 6; the survivor count (dose: 200.0 mg/kg/injection, schedule: Q01DX005 (ip), vehicle: saline) is 0 of 6; the survivor count (dose: 200.0 mg/kg/injection, schedule: Q01DX009 (ip), vehicle: saline) is on record as 3 of 6.
Consider `CC(=O)Nc1cc(Cl)c(Nc2cc(S(=O)(=O)O)c(N)c3c2C(=O)c2ccccc2C3=O)c(Cl)c1`, for which the survivor count under setting [6] is listed as 2 of 6.
With `CC/C(C)=N/C(=O)NN`, the survivor count by setting is: (dose: 200.0 mg/kg/injection, schedule: Q01DX001 (ip), vehicle: saline with Tween-80) 0 of 6; (dose: 400.0 mg/kg/injection, schedule: Q01DX001 (ip), vehicle: saline with Tween-80) 0 of 6.
As for `CC(C)=C1C2C=CC1C1C(=O)OC(=O)C21` (configuration not stated), the survivor count (dose: 100.0 mg/kg/injection, schedule: Q01DX009 (ip), vehicle: Klucel (hydroxypropylcellulose) (HPC)) is on record as 6 of 6; the survivor count (dose: 200.0 mg/kg/injection, schedule: Q01DX001 (ip), vehicle: Klucel (hydroxypropylcellulose) (HPC)) is 3 of 6; the survivor count (dose: 400.0 mg/kg/injection, schedule: Q01DX001 (ip), vehicle: Klucel (hydroxypropylcellulose) (HPC)) is on record as 0 of 6.
For `O=C1OC(=O)C2C1C13CCCC1=C1CCC34C(=O)OC(=O)C43CC123` (configuration not stated), the survivor count is 3 of 6 (dose: 25.0 mg/kg/injection, schedule: Q01DX009 (ip), vehicle: saline); 0 of 6 (dose: 50.0 mg/kg/injection, schedule: Q04DX003 (ip), vehicle: saline); 2 of 6 under setting [1]; 1 of 6 under setting [3]; 0 of 6 under setting [2].
With `COc1ccc(CCN)cc1`, the survivor count reads like this: (dose: 200.0 mg/kg/injection, schedule: Q04DX002 (ip), vehicle: saline) 3 of 3; (dose: 400.0 mg/kg/injection, schedule: Q04DX002 (ip), vehicle: saline) 0 of 3.
Consider `Cc1cccc2c(N=Nc3ccccc3[N+](=O)[O-])c(O)[nH]c12`, for which the survivor count under setting [3] is given as 6 of 6.
